PubChem BioAssay AID686937, Drosophila RNAi Screening Center | 2013
The screen tested about 23,000 reagents; this is an unselected part of those with a known target gene and a result. 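Reduced-secretion tags in replicate 1 do not always agree with the z-scores; no criterion for assigning the tags was given.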 Reagents against one gene are numbered here. Names joined by + are all predicted targets of the reagent. Not all columns of the deposit are shown. Not stated in the record: the amount of reagent.

- Assay: 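Knock-downs that reduce output of a secreted reporter enzyme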 (primary screen)
- Cells: Drosophila S2 cells expressing secreted horseradish peroxidase
- Knock-down reagent: long dsRNA against Drosophila genes
- Time to read-out: about 5.5 days (5 days dsRNA, then 12 h reporter induction)
- Challenge: reporter expression induced after 5 days of dsRNA, read 12 h later; inducer not stated
- Detection: 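After 5 days of dsRNA and 12 h of reporter induction, medium peroxidase read by chemiluminescence and scored as per-plate z-score; higher values mean more reporter released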
- Direction: z-score: higher = more reporter secreted into medium

Against CG2930, the entry reads z-score, replicate 1 = -0.01.
After knock-down of CG11257 the results were z-score, replicate 1 = 0.22.
For CG8414, the values are z-score, replicate 1 = 0.38.
After knock-down of CG6497 #1, the record shows z-score, replicate 1 = 0.26.
With knock-down of CG6497 #2, the screen gave z-score, replicate 1 = 1.56.
Silencing of hpRNA:CR18854 gave: z-score, replicate 1 = 0.36.
Against Mmp2 #1, the values are z-score, replicate 1 = 0.12.
After knock-down of Mmp2 #2, the screen gave z-score, replicate 1 = 0.89.
With knock-down of mRpS5, the record shows z-score, replicate 1 = 1.21.
Against AANATL6, the entry reads z-score, replicate 1 = 0.04.
After knock-down of Tusp the results were z-score, replicate 1 = 0.4.
For GCS2beta, the entry reads z-score, replicate 1 = 0.68.
Depletion of CG8492 #1 came out at: z-score, replicate 1 = -0.81.
Against CG8492 #2, the values are z-score, replicate 1 = -0.32.
Knock-down of CG17292 resulted in: z-score, replicate 1 = 0.27.
Against Cdc14, the values are z-score, replicate 1 = 0.56.
CG3085 showed z-score, replicate 1 = 0.22.
For Septin2, the values are z-score, replicate 1 = 0.3.
After knock-down of CG8813, the screen gave z-score, replicate 1 = 0.03.
fz4 scored z-score, replicate 1 = 0.33.
Mtpbeta scored z-score, replicate 1 = 0.33.
CG31626 + CG8677 showed z-score, replicate 1 = 0.45.
Against Tengl3, the entry reads z-score, replicate 1 = 0.09.
For car the deposit lists z-score, replicate 1 = 0.05.
Silencing of Odc2 resulted in: z-score, replicate 1 = 0.15.
CG31321 showed z-score, replicate 1 = -0.06.
With knock-down of dmpd, the screen gave z-score, replicate 1 = 0.28.

Limited to “z-score, replicate 1” (5 entries from above):
hpRNA:CR18854 = 0.36
Mmp2 #1 = 0.12
Mmp2 #2 = 0.89
mRpS5 = 1.21
AANATL6 = 0.04

The list goes on:
Against CG18547, the values are z-score, replicate 1 = -0.26.
CG2926 scored z-score, replicate 1 = -0.02.
With knock-down of Alp9, the record shows z-score, replicate 1 = 0.4.
CG32773 (retired record) showed z-score, replicate 1 = -0.33.
Knock-down of LysRS came out at: z-score, replicate 1 = 0.35.
For Mo25, the values are z-score, replicate 1 = -1.72; phenotype, replicate 1 = reduced secretion.
Silencing of CG3163 came out at: z-score, replicate 1 = 0.26.
ms(3)76Cc #1 showed z-score, replicate 1 = 0.45.
For ms(3)76Cc #2 the deposit lists z-score, replicate 1 = -0.87; phenotype, replicate 1 = reduced secretion.
Depletion of RecQ5 gave: z-score, replicate 1 = 0.29.
Against CG33490, the entry reads z-score, replicate 1 = 0.29.
With knock-down of Jhbp2 the results were z-score, replicate 1 = -0.63.
Depletion of CG17107 #1 came out at: z-score, replicate 1 = 0.44.
After knock-down of CG17107 #2 the results were z-score, replicate 1 = -0.68.
